These results are taken from article PMC4164675.

Amino acid sequences for entries named in this document (tags omitted). A change or cut given only in a name is not applied to a line headed by its entry.
UniProt P26651: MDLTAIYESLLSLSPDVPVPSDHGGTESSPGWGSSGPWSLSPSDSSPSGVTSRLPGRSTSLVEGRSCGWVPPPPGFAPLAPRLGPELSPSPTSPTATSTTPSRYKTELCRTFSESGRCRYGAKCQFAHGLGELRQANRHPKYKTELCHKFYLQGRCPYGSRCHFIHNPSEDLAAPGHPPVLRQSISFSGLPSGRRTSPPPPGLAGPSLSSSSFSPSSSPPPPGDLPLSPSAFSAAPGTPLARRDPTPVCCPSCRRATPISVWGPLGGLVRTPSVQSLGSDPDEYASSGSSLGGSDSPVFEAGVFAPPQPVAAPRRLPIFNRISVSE

For this series, the target named is TTP (tristetraprolin) (Homo sapiens) (UniProt P26651). The experiment in a line: EMSA. The settings on record: 50 and 100 ng TTP in 20 ul, 2 mg/ml tRNA, 10 mM HEPES pH 7.3, 40 mM KCl, 3 mM MgCl2, 2 mM DTT, 5% glycerol, room temperature, 30 min, 6% native PAGE, recombinant protein, residues 1-326, protein details: His-tag cleaved with AcTEV, label: 3' biotin, probe letters rebuilt from the primers and the genome, part of a longer molecule.

Negatives hold for the conditions tested. For at least one entry, the source does not settle the construct or the ends of the probe.

Take “AGGAAACAGUCAUUUGCGCACAACUUUAAAAGUCUGCAUUACAUUCCUCGAUAAUGUUGUGGUUUGUUGCCGUUGCCAAGAAUUGAAAACAAAAAGUUUAAAAAAAAUAAUAAUAAAUUGCAUGCUGCUUUAAUUGUGAAUUGAUAAUAAACUGUCCCUCUUUCAGAAAACAGAUU [U2 RNA (distal fragment of BDNF-S 3'UTR)]”: the binding result is reported as “no binding”.
For “UGGAUUUAUGUUGUAUAGAUUAUAUUGAGACAAAAUUAUCUAUUUGUAUAUAUACAUAACAGGGUAAAUUAUUCAGUUAAGAAAAAAUAAUUUUAUGAACUGCAUGUAUAAAUGAAGUUUAUACAGUACAGUGGUUCUACAAUCUAUUUAUUGGACAUAUCCAUGACCU [U1 RNA (5' proximal fragment of BDNF 3'UTR)]” the value was “binds”.
